No constants are given. Whether binding was seen depends on the method and setting. In cells and extracts the contact can be indirect. Some binding calls cover weakened binding; strength is not graded here.

The target in the assay is sortilin (human (endogenous in SUDHL4 and SUDHL6)), Q99523. As to the kind of experiment: co-IP; sortilin immunoprecipitated from cell lysates, protein A/G-agarose beads, blotted with anti-p75^NTR; SUDHL4 with 10% FCS or after 72 h serum deprivation; SUDHL4 and SUDHL6 with or without rituximab 20 µg/ml. To be noted: remark: other sources report otherwise.

B1: p75 NT receptor (p75^NTR), mature 75 kDa form, P08138 29-427 (receptor)
chain: KEACPTGLYTHSGECCKACNLGEGVAQPCGANQTVCEPCLDSVTFSDVVSATEPCKPCTECVGLQSMSAPCVEADDAVCRCAYGYYQDETTGRCEACRVCEAGSGLVFSCQDKQNTVCEECPDGTYSDEANHVDPCLPCTVCEDTERQLRECTRWADAECEEIPGRWITRSTPPEGSDSTAPSTQEPEAPPEQDLIASTVAGVVTTVMGSSQPVVTRGTTDNLIPVYCSILAAVVVGLVAYIAFKRWNSCKQNKQGANSRPVNQTPPPEGEKLHSDSGISVDSQSLHDQQPHTQTASGQALKGDGGLYSSLPPAKREEVEKLLNGSAGDTWRHLAGELGYQPEHIDSFTHEACPVRALLASWATQDSATLDALLAALRRIQRADLVESLCSESTATSPV
B1: the binding result is on record as “binds”.

The values are drawn from publication PMC3208602.
